US20020122768A1 (priority 2000, published 2002)

Assay: general procedure: Boc solid-phase peptide synthesis; p-nitrobenzophenone oxime resin (substitution 0.69 mmol/g or 0.95 mmol/g); HBTU, DIPEA
Details: TFA salt; for final HPLC purity / crude HPLC purity: Analytical HPLC Method 1 (HP 1050, Vydac C18, diode array detector 220 nm)

Q: For “2-(1,4,7,10-tetraaza-4,7,10-tris(t-butoxycarbonylmethyl)-1-cyclododecyl)acetyl-Glu(cyclo{Lys-Arg-Gly-Asp-D-Phe})-cyclo{Lys-Arg-Gly-Asp-D-Phe}”, which “final HPLC purity” value (conjugation step) is on record?
A: Purity=99%

Q: For “Boc-Glu(cyclo{Lys-Arg-Gly-Asp-D-Phe})-cyclo{Lys-Arg-Gly-Asp-D-Phe}”, which “crude HPLC purity” value (conjugation step) is on record?
A: Purity=73%

Q: What about the conjugation yield (conjugation step) of the same substance?
A: 44%

Q: Which results are given for “Glu(cyclo{Lys-Arg-Gly-Asp-D-Phe})-cyclo{Lys-Arg-Gly-Asp-D-Phe}”?
A: crude HPLC purity (late stage modification step): Purity=73%; step yield (late stage modification step): 100%

Q: With cyclo{Arg-Gly-Asp-D-Phe-Lys} as the substance, how does the “final HPLC purity” value (late stage modification step) read?
A: Purity=100%

Q: And the step yield (late stage modification step)?
A: 71%

Q: For “Cyclo{Arg(Tos)-Gly-Asp(OBzl)-D-Phe-Lys(Cbz)}”, which “crude HPLC purity” value (whole synthesis, scale of the general procedure 0.5 g (or 1 g) of the oxime resin per teabag) is on record?
A: Purity=89%
